We go through 3 substances from publication PMC7450086.

By UniProt entry, the sequences of proteins in these tests, tags left out. Where a name states a change or a piece, a line headed by the entry shows the natural chain unless it says otherwise. Chains listed by the source or under a name are the forms on record and can include a tag or linker.
UniProt Q9VIQ8: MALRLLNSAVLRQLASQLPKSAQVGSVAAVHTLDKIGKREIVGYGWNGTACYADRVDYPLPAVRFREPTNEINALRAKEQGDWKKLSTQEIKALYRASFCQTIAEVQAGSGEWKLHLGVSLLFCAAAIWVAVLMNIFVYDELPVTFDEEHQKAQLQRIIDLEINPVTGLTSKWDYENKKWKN
Serine-arginine protein 55 (P26686, form named): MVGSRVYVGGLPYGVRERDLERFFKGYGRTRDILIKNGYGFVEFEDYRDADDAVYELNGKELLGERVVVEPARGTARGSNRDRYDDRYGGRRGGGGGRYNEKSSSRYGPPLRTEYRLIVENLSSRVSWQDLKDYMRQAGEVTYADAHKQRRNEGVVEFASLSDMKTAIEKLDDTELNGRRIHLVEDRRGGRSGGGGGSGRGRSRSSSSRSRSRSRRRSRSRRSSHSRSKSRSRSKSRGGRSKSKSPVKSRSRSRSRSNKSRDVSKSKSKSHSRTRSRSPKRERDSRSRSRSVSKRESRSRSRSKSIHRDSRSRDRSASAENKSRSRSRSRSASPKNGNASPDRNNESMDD
UniProt Q24117: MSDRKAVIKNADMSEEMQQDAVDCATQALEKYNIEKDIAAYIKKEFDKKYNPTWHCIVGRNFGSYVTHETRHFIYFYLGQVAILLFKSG

The target in this assay is T1, EGFP-Spn-F (Spindle-F) (Drosophila) (UniProt Q9V9Y9).
T1 sequence: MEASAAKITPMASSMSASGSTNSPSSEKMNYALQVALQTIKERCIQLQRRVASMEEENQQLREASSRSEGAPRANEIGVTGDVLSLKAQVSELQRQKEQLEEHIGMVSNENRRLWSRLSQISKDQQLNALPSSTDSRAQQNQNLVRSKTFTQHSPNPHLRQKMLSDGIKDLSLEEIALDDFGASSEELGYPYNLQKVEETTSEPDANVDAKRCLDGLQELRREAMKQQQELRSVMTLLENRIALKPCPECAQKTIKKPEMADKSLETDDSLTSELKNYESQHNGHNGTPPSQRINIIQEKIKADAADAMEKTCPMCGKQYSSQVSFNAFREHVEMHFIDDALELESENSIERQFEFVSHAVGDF
Put plainly: affinity purification with mass spectrometry; GFP-Spn-F (Actin-Gal4 driven) precipitated from adult fly head lysates with GFP magnetic beads (Chromoteck) overnight at 4 °C; lysis buffer 50 mM Tris-HCl pH 7.5, 150 mM NaCl, 1% NP-40, 0.5% sodium deoxycholate; washes 10 mM Tris-HCl pH 8.0, 150 mM NaCl, 0.1% NP-40; GFP-only flies as control; LC-MS/MS.

Results are given in words; binding and its absence hold for the method and conditions named. In cells and extracts the contact can be indirect. These calls come from enrichment with a bait or labelling near it, and not all partners need be listed. Where a sequence is shown, tags or fusion partners need not be part of it.

For “Cytochrome c oxidase subunit 4 (from UniProt Q9VIQ8)”, the binding entry is on record as “binds”.

With “Serine-arginine protein 55 (from UniProt P26686 1-350)”, the binding result is on record as “binds”. In the case of “dynein light chain 1 (Dlc1), Cut up (from UniProt Q24117 1-89)” it was “binds”.
